The results in this text go back to publication PMC8920235.

The target of the test is T1, interferon regulatory factor 3 (mouse (endogenous in Raw 264.7)) (UniProt P70671).
T1 sequence: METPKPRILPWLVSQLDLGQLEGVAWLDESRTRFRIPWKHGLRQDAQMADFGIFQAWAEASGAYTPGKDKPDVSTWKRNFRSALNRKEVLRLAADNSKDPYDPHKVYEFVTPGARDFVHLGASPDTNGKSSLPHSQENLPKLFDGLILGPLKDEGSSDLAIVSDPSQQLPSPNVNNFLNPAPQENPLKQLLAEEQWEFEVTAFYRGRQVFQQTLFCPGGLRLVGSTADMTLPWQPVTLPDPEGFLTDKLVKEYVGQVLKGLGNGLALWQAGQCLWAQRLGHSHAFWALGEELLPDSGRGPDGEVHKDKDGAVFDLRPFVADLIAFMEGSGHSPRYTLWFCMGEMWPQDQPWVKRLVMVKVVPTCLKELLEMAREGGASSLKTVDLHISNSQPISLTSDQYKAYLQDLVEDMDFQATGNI
The test is described as follows: co-IP; Raw 264.7 cells pretreated with the indicated concentration of QUIN or DMSO for 8 h; NP40 lysis buffer; extracts precipitated with anti-IRF3 or anti-CaMKII antibody overnight at 4°C; beads washed three times (50 mM Tris pH 7.4, 500 mM NaCl, 0.1% NP-40, 1 mM EDTA); Western blot with the other antibody. Background: In western blotting, separated proteins are transferred to a membrane and probed.

Results are given in words; binding and its absence hold for the method and conditions named. Binding seen in cells or lysates may run through a third protein. Binding can be weak; no strength is given.

As for “Calcium/calmodulin-dependent protein kinase II (mouse (endogenous in Raw 264.7)) (enzyme)”, the binding result is reported as “binds”.
